Data as given in PubChem BioAssay AID1508597 (Cure First, 2020).
Purpose: 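Knock-downs altering ovarian cancer cell survival with or without PARP inhibitor rucaparib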 (primary screen). Cells: human ovarian carcinoma lines grown from tumours: OCI-P5x (papillary serous) and OCI-C5x (clear cell). Reagents: siRNA pool against human genes, 1.25 pmol siRNA per well. Duration: 72 h or 96 h, depending on the cell culture. Conditions: rucaparib 20 µM (about IC30) or vehicle, present until read-out. Rucaparib or vehicle: Vehicle. Cell line: OCI-C5x (clear cell). Detection: 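ATP luminescence measured at 72 or 96 h according to the culture, then normalised and expressed as percent viability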. Scale: viability, normalised: higher = more viable cells remaining. Rule for the call: 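a well counts as a hit if its normalised viability is under 80 percent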. Meaning of the calls: active = viability under 80%; inactive = viability 80% or more.
This is an unselected part of the about 2,100 reagents, in one setting of the screen. 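Calls flag viability under 80% in either arm, not effects specific to rucaparib; the reference for percent is not stated.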 Some reagents were tested in more than one well and are listed for each. Reagent sequences are not shown. Not given: the 100% reference.

RAD51, technical replicate 1 scored viability, normalised (%) = 38.2; active.
For RAD51, technical replicate 2, the entry reads viability, normalised (%) = 55.7; active.
RAD51, technical replicate 3 showed viability, normalised (%) = 45.7; active.
CCNE1, technical replicate 1 gave viability, normalised (%) = 53.2; active.
CCNE1, technical replicate 2 showed viability, normalised (%) = 69.2; active.
CCNE1, technical replicate 3 gave viability, normalised (%) = 67.1; active.
SLX4, technical replicate 1 gave viability, normalised (%) = 50.1; active.
With SLX4, technical replicate 2, the values are viability, normalised (%) = 46.3; active.
For SLX4, technical replicate 3 the deposit lists viability, normalised (%) = 30.4; active.
With EVI5L, technical replicate 1, the entry reads viability, normalised (%) = 74.5; active.
For EVI5L, technical replicate 2 the deposit lists viability, normalised (%) = 51.4; active.
EVI5L, technical replicate 3 showed viability, normalised (%) = 63; active.
ITPKC, technical replicate 1 showed viability, normalised (%) = 56.2; active.
ITPKC, technical replicate 2 scored viability, normalised (%) = 57; active.
ITPKC, technical replicate 3 gave viability, normalised (%) = 55.2; active.
With EID2, technical replicate 1 the deposit lists viability, normalised (%) = 52.4; active.
With EID2, technical replicate 2, the entry reads viability, normalised (%) = 56; active.
For EID2, technical replicate 3, the entry reads viability, normalised (%) = 43.3; active.
With PFKFB3, technical replicate 1, the values are viability, normalised (%) = 36.6; active.
For PFKFB3, technical replicate 2, the values are viability, normalised (%) = 35.2; active.
With PFKFB3, technical replicate 3, the values are viability, normalised (%) = 31; active.
For SUPV3L1, technical replicate 1, the values are viability, normalised (%) = 54.6; active.
SUPV3L1, technical replicate 1 showed viability, normalised (%) = 32.5; active.
SUPV3L1, technical replicate 2 showed viability, normalised (%) = 36.7; active.
With SUPV3L1, technical replicate 2, the values are viability, normalised (%) = 37.7; active.
For SUPV3L1, technical replicate 3, the entry reads viability, normalised (%) = 33.2; active.
SUPV3L1, technical replicate 3 scored viability, normalised (%) = 49.3; active.

4 entries from above, sorted by “viability, normalised (%)”, low to high:
EVI5L, technical replicate 2 — viability, normalised (%) = 51.4; Call = active
ITPKC, technical replicate 1 — viability, normalised (%) = 56.2; Call = active
ITPKC, technical replicate 2 — viability, normalised (%) = 57; Call = active
EVI5L, technical replicate 3 — viability, normalised (%) = 63; Call = active

The listing continues:
With PCDHB13, technical replicate 1, the values are viability, normalised (%) = 43.5; active.
PCDHB13, technical replicate 2 gave viability, normalised (%) = 33.3; active.
For PCDHB13, technical replicate 3 the deposit lists viability, normalised (%) = 34.3; active.
DNMT1, technical replicate 1 showed viability, normalised (%) = 56.9; active.
DNMT1, technical replicate 2 scored viability, normalised (%) = 69.4; active.
With DNMT1, technical replicate 3, the values are viability, normalised (%) = 60.2; active.
LATS1, technical replicate 1 gave viability, normalised (%) = 68.7; active.
LATS1, technical replicate 1 gave viability, normalised (%) = 71.2; active.
With LATS1, technical replicate 2, the values are viability, normalised (%) = 71.4; active.
LATS1, technical replicate 2 scored viability, normalised (%) = 73.8; active.
LATS1, technical replicate 3 showed viability, normalised (%) = 51.6; active.
LATS1, technical replicate 3 showed viability, normalised (%) = 38.6; active.
MAD2L1, technical replicate 1 gave viability, normalised (%) = 41.1; active.
MAD2L1, technical replicate 2 scored viability, normalised (%) = 42.1; active.
MAD2L1, technical replicate 3 scored viability, normalised (%) = 46.8; active.
